{"source": "PubChem BioAssay AID1259266 (Sanger Institute, 2017)", "screen": "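Search kinases and colorectal cancer genes for essential genes and drug synergy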 (primary screen)", "cell system": "LS123 human colorectal cancer cells", "reagents": "siRNA pool against human genes", "conditions": "anchor drugs BYL719 (1 µM), cetuximab (5 µg/ml) or trametinib (10 nM), each chosen to barely slow growth alone; DMSO vehicle as the drug-free arm", "measurement": "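Replicate-averaged viability scaled to non-targeting pools, robust z-score for siRNA alone, and a synergy score per anchor drug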", "direction": "robust z-score, knock-down alone: higher = more cells surviving after knock-down; viability, knock-down alone: higher = more viable cells", "call rule": "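a knock-down counts as essential if its z-score without drug is under -3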", "calls": "active = essential (knock-down alone cuts viability); inactive = no change", "note": "Shown is one part, drawn at random, of 794 reagents tested. Over the whole deposit, 16 (2%) are marked active. 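Calls reflect knock-down alone, not drug synergy; viability seems capped at 1 and z-scores at 0.585.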 Entries without a mark were called inactive. Further read-outs or replicates are left out here. No sequences are given here. The record does not give: the amount of reagent, the time to read-out."}
{"gene":"PI4K2B","robust z-score, knock-down alone":-2.23,"viability, knock-down alone (fraction of control)":0.833}
{"gene":"RIPK3","robust z-score, knock-down alone":-0.052,"viability, knock-down alone (fraction of control)":0.962}
{"gene":"EIF2AK1","robust z-score, knock-down alone":0.585,"viability, knock-down alone (fraction of control)":1}
{"gene":"DLG2","robust z-score, knock-down alone":0.585,"viability, knock-down alone (fraction of control)":1}
{"gene":"ULK4","robust z-score, knock-down alone":0.585,"viability, knock-down alone (fraction of control)":1}
{"gene":"SHPK","robust z-score, knock-down alone":0.585,"viability, knock-down alone (fraction of control)":1}
{"gene":"GSK3B","robust z-score, knock-down alone":0.585,"viability, knock-down alone (fraction of control)":1}
{"gene":"PGK2","robust z-score, knock-down alone":0.585,"viability, knock-down alone (fraction of control)":1}
{"gene":"MAP2K6","robust z-score, knock-down alone":0.585,"viability, knock-down alone (fraction of control)":1}
{"gene":"DYRK4","robust z-score, knock-down alone":0.585,"viability, knock-down alone (fraction of control)":1}
{"gene":"EGFR","robust z-score, knock-down alone":-0.203,"viability, knock-down alone (fraction of control)":0.953}
{"gene":"SYK","robust z-score, knock-down alone":-1.73,"viability, knock-down alone (fraction of control)":0.863}
